The text below walks through data of paper PMC5424161.

By UniProt entry, the sequences of proteins in these tests, tags left out.
UniProt P16220: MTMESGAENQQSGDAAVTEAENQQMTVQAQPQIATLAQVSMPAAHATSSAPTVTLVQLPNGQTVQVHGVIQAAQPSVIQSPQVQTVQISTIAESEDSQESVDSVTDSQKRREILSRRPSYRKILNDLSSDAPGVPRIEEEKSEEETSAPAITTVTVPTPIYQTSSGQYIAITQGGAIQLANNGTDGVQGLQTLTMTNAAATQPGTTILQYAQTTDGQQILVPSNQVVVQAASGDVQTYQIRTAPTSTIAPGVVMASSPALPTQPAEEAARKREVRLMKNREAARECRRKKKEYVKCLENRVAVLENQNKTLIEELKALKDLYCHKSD
UniProt P46937: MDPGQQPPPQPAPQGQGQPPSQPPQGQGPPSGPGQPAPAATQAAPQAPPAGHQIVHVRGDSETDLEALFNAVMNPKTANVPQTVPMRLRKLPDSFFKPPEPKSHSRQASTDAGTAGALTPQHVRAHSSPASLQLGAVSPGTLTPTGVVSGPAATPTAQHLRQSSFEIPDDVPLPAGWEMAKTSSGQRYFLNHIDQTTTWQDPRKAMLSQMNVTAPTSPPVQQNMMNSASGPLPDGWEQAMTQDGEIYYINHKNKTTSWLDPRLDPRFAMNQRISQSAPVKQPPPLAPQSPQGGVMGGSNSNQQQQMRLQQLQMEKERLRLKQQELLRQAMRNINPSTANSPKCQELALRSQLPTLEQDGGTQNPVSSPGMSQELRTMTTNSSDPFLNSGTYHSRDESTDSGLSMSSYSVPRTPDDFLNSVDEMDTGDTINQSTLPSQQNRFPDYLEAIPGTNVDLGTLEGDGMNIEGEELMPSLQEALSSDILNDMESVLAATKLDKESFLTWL

In assay [1] the target is CREB-HA (UniProt P16220). Description: co-IP; YAP-FLAG co-transfected with TEAD4-Myc or CREB-HA into Bel-7402 cells, with or without OGT overexpression; IP with anti-Myc or anti-HA antibodies, blot for YAP-FLAG; a co-IP under rising glucose concentrations (Supplementary Fig. 9c) is taken with it.
For assay [2], the target named is Yes-associated protein (YAP), endogenous (human (endogenous in Bel-7402 and SMMC-7721)) (UniProt P46937). Description: co-IP; IP with anti-YAP antibodies from cell lysate, blot for OGT; cell line not given.
Assay [3] has the same target. Description: proximity ligation; Duolink in situ red starter kit (mouse/rabbit) on cells fixed with 4% paraformaldehyde; primary antibodies anti-YAP and anti-OGT; signal if the probes are <40 nm apart.

Results are given in words; binding and its absence hold for the method and conditions named. In cells and extracts the contact can be indirect. Some results given as binding are weak or reduced against the parent protein; the word gives no strength.

As to “YAP-FLAG, wild type (from UniProt P46937 1-504)”, the binding entry in assay [1] is “binds”.

B1: O-GlcNAc transferase (OGT), endogenous (enzyme, UniProt O15294 1-1046)
chain: MASSVGNVADSTEPTKRMLSFQGLAELAHREYQAGDFEAAERHCMQLWRQEPDNTGVLLLLSSIHFQCRRLDRSAHFSTLAIKQNPLLAEAYSNLGNVYKERGQLQEAIEHYRHALRLKPDFIDGYINLAAALVAAGDMEGAVQAYVSALQYNPDLYCVRSDLGNLLKALGRLEEAKACYLKAIETQPNFAVAWSNLGCVFNAQGEIWLAIHHFEKAVTLDPNFLDAYINLGNVLKEARIFDRAVAAYLRALSLSPNHAVVHGNLACVYYEQGLIDLAIDTYRRAIELQPHFPDAYCNLANALKEKGSVAEAEDCYNTALRLCPTHADSLNNLANIKREQGNIEEAVRLYRKALEVFPEFAAAHSNLASVLQQQGKLQEALMHYKEAIRISPTFADAYSNMGNTLKEMQDVQGALQCYTRAIQINPAFADAHSNLASIHKDSGNIPEAIASYRTALKLKPDFPDAYCNLAHCLQIVCDWTDYDERMKKLVSIVADQLEKNRLPSVHPHHSMLYPLSHGFRKAIAERHGNLCLDKINVLHKPPYEHPKDLKLSDGRLRVGYVSSDFGNHPTSHLMQSIPGMHNPDKFEVFCYALSPDDGTNFRVKVMAEANHFIDLSQIPCNGKAADRIHQDGIHILVNMNGYTKGARNELFALRPAPIQAMWLGYPGTSGALFMDYIITDQETSPAEVAEQYSEKLAYMPHTFFIGDHANMFPHLKKKAVIDFKSNGHIYDNRIVLNGIDLKAFLDSLPDVKIVKMKCPDGGDNADSSNTALNMPVIPMNTIAEAVIEMINRGQIQITINGFSISNGLATTQINNKAATGEEVPRTIIVTTRSQYGLPEDAIVYCNFNQLYKIDPSTLQMWANILKRVPNSVLWLLRFPAVGEPNIQQYAQNMGLPQNRIIFSPVAPKEEHVRRGQLADVCLDTPLCNGHTTGMDVLWAGTPMVTMPGETLASRVAASQLTCLGCLELIAKNRQEYEDIAVKLGTDLEYLKKVRGKVWKQRISSPLFNTKQYTMELERLYLQMWEHYAAGNKPDHMIKPVEVTESA
For B1, the binding entry in assay [2] and in assay [3] was “binds” throughout.
